{
  "sequences": {"note": "Sequences of proteins named here, by UniProt entry; tags and fusion partners are left off.", "UniProt P19821, whole entry": "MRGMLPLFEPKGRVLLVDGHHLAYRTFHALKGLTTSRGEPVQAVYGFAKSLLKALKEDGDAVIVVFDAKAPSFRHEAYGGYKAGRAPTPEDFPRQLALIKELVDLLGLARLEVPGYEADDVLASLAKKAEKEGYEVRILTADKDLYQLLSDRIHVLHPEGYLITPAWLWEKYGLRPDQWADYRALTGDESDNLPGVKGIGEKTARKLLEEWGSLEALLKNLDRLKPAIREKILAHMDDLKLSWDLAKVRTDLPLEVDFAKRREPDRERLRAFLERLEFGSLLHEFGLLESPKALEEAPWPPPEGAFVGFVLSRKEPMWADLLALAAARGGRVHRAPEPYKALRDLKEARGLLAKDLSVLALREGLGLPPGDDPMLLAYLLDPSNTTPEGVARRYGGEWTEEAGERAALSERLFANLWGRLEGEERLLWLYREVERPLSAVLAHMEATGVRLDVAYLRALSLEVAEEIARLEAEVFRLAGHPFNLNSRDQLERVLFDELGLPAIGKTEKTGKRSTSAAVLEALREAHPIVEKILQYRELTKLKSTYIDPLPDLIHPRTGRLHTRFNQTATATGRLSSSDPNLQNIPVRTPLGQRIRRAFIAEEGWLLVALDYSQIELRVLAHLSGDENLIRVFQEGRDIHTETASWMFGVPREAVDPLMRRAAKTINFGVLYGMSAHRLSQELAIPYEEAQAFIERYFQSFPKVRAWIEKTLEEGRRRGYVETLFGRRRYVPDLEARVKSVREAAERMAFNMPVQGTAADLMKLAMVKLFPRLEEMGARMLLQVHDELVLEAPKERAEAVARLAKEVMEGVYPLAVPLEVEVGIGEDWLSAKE", "UniProt O15527, whole entry": "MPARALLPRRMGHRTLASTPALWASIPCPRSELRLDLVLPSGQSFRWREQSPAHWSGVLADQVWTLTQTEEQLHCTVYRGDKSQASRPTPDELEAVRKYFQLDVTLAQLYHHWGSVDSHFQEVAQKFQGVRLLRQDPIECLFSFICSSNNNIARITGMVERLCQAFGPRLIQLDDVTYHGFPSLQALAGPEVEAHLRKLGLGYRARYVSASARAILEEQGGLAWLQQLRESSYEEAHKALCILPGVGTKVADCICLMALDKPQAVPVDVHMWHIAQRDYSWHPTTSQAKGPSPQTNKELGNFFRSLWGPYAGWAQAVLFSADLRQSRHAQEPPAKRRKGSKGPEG", "UniProt P29372, whole entry": "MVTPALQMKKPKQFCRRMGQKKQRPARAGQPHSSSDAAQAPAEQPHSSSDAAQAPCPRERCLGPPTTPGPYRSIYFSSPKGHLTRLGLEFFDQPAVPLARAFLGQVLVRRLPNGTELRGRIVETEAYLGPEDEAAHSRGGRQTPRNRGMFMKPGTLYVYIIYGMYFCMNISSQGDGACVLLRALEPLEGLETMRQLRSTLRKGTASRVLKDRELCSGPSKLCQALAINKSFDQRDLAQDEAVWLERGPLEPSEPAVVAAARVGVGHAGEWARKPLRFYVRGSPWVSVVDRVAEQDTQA"},
  "source": "patent US20170335381",
  "key": {"[1]": {"target": "Taq DNA polymerase (UniProt P19821)", "test": "inhibition of the protein", "details": "purified recombinant protein"}, "[2]": {"target": "T1, uracil DNA glycosylase (UDG) (UniProt P12295)", "T1 sequence (looked up, limits assumed)": "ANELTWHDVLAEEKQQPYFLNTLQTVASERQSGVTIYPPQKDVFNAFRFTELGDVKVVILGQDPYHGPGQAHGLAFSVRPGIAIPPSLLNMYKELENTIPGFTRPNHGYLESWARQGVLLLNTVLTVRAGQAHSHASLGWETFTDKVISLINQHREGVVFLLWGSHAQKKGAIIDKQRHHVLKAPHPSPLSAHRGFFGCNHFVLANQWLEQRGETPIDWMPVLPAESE", "test": "enzyme reaction in vitro", "details": "purified recombinant protein, folded or branched DNA"}, "[3]": {"target": "T2, BamHI (UniProt P23940)", "T2 sequence (looked up, limits assumed)": "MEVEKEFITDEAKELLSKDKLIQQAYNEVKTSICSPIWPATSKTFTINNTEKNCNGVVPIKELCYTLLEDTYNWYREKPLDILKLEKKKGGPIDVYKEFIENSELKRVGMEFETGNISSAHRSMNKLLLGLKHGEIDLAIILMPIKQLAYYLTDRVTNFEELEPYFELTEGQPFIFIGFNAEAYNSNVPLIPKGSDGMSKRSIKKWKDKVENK", "test": "enzyme reaction in vitro", "details": "deoxyuracil in blocker at positions 5,6,11,12; Taq activity not restored; 5 U/mL, 37 C; purified recombinant protein; folded or branched DNA"}, "[4]": {"target": "T3, Exonuclease I (Exo I) (UniProt P04995)", "T3 sequence (looked up, limits assumed)": "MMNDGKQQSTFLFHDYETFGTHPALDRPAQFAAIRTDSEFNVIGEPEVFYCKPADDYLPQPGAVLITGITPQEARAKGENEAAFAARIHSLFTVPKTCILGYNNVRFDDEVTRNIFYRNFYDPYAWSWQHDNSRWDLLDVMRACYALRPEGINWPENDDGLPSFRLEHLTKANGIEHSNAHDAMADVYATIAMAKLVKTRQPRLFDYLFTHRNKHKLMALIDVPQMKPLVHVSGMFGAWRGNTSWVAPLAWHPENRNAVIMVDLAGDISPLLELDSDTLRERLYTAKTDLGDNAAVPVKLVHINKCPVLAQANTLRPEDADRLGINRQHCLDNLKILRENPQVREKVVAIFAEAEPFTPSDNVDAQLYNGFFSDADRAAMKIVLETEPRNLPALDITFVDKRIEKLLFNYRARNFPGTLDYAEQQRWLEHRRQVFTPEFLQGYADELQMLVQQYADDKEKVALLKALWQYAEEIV", "test": "enzyme reaction in vitro", "details": "deoxyuracil in blocker at positions 5,6,11,12; Taq activity not restored; 5 U/mL, 37 C; purified recombinant protein; folded or branched DNA"}, "[5]": {"target": "T4, Lambda exonuclease (UniProt P03697)", "T4 sequence (looked up, limits assumed)": "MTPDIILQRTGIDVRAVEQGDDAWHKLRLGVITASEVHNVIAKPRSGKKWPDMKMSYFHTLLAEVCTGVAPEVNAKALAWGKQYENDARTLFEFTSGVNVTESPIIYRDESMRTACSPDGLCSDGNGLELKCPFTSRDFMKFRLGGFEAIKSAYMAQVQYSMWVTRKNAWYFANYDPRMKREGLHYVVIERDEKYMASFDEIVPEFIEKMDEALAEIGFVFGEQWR", "test": "enzyme reaction in vitro", "details": "deoxyuracil in blocker at positions 5,6,11,12; Taq activity not restored; 5 U/mL, 37 C; purified recombinant protein; folded or branched DNA"}, "[6]": {"target": "T5, formamidopyrimidine-DNA glycosylase (Fpg) (UniProt P05523)", "T5 sequence (looked up, limits assumed)": "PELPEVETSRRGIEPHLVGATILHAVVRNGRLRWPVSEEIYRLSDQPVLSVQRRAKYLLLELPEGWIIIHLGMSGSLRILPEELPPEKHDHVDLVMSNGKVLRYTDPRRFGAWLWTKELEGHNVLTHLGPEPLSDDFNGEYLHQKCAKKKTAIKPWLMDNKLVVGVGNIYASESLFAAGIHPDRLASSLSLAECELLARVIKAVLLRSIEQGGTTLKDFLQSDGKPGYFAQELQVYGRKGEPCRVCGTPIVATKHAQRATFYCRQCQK", "test": "enzyme reaction in vitro", "details": "deoxyuracil in blocker at positions 5,6,11,12; Taq activity not restored; 5 U/mL, 37 C; purified recombinant protein; folded or branched DNA"}, "[7]": {"target": "human 8-oxoguanine DNA glycosylase 1 (hOGG1) (Homo sapiens) (UniProt O15527)", "test": "enzyme reaction in vitro", "details": "deoxyuracil in blocker at positions 5,6,11,12; Taq activity not restored; 5 U/mL, 37 C; purified recombinant protein; folded or branched DNA"}, "[8]": {"target": "human alkyladenine DNA glycosylase (hAAG) (Homo sapiens) (UniProt P29372)", "test": "enzyme reaction in vitro", "details": "deoxyuracil in blocker at positions 5,6,11,12; Taq activity not restored; 5 U/mL, 37 C; purified recombinant protein; folded or branched DNA"}, "[9]": {"details": "no inhibition without complementary target, 100 nM aptamer, 25 C, single-stranded DNA, variant of Original DNA aptamer (78-mer)"}},
  "note": "Negatives hold for the conditions tested. For part of these data: Protein sequences can lack the tags named with them.",
  "data": [
    {"sequence": "AAATACTGGTGACCGTCCTACAATGTACAGTATTG / TAGGACGGTCACCAGTATTTTTAATGCTGATTACTTTTGC [Urea-specific aptamer 2 / urea-specific blocker]", "values": [
      {"measurement": "functional effect of the aptamer", "setting": "[1]; blocker dose-dependent inhibition, also inhibited with non-complementary Chlamydia-target2, 200 nM aptamer, 20 nM blocker, folded or branched DNA", "result": "active"}
    ]},
    {"sequence": "AAATACTGGTGACCGTCCTACAATGTACAGTATTG [Urea-specific aptamer 2 released from blocker]", "values": [
      {"measurement": "functional effect of the aptamer", "setting": "[1]; activity restored when urea-target2 (SEQ 16) strips the blocker, target detection limit 2.67 nM, single-stranded DNA, variant of Original DNA aptamer (78-mer)", "result": "not active"}
    ]},
    {"sequence": "ACTGACTGACTGACTGACTGCAATGTACAGTATTG / CAGTCAGTCAGTCAGTCAGT [Random2-aptamer / Random2-target complex]", "values": [
      {"measurement": "functional effect of the aptamer", "setting": "[1]; inhibition similar to original 78-mer aptamer, 100 nM aptamer and target, 25 C, folded or branched DNA, variant of Random2-aptamer without target", "result": "active"}
    ]},
    {"sequence": "ACTGACTGACTGACTGACTGCAATGTACAGTATTG [Random2-aptamer without target]", "values": [
      {"measurement": "functional effect of the aptamer", "setting": "[1]; [9]", "result": "not active"}
    ]},
    {"sequence": "AGTCAGTCAGTCAGTCAGTCCAATGTACAGTATTG / GACTGACTGACTGACTGACT [Random1-aptamer / Random1-target complex]", "values": [
      {"measurement": "functional effect of the aptamer", "setting": "[1]; inhibition similar to original 78-mer aptamer, 100 nM aptamer and target, 25 C, folded or branched DNA, variant of Random1-aptamer without target", "result": "active"}
    ]},
    {"sequence": "AGTCAGTCAGTCAGTCAGTCCAATGTACAGTATTG [Random1-aptamer without target]", "values": [
      {"measurement": "functional effect of the aptamer", "setting": "[1]; [9]", "result": "not active"}
    ]},
    {"sequence": "CAATGTACAGTATTGTTTTTTTTTTTTTTTTTTTT / AAAAAAAAAAAAAAAAAAAA [T20-aptamer (Reverse) / A20-target complex]", "values": [
      {"measurement": "functional effect of the aptamer", "setting": "[1]; inhibition similar to original 78-mer aptamer, 100 nM aptamer and target, 25 C, folded or branched DNA, variant of T20-aptamer (Reverse) without target", "result": "active"}
    ]},
    {"sequence": "CAATGTACAGTATTGTTTTTTTTTTTTTTTTTTTT [T20-aptamer (Reverse) without target]", "values": [
      {"measurement": "functional effect of the aptamer", "setting": "[1]; [9]", "result": "not active"}
    ]},
    {"sequence": "TACAAGCTGCAATCCCTTTTAAGATCAATGTACAGTATTG / ATCTTAAAAGGGATTGCAGCTTGTA [Chlamydia-specific aptamer / complementary Chlamydia-target]", "values": [
      {"measurement": "functional effect of the aptamer", "setting": "[1]; target dose-dependent inhibition, target detection limit 1.47 nM, 5.5 nM Taq, 200 nM aptamer, 25 C, folded or branched DNA", "result": "active"}
    ]},
    {"sequence": "TACAAGCTGCAATCCCTTTTAAGATCAATGTACAGTATTG [Chlamydia-specific aptamer without target]", "values": [
      {"measurement": "functional effect of the aptamer", "setting": "[1]; high activity at zero target, 200 nM aptamer, 25 C, single-stranded DNA, variant of Original DNA aptamer (78-mer)", "result": "not active"}
    ]},
    {"sequence": "TAGGACGGTCACCAGTATTTTTAATCAATGTACAGTATTG / ATCTTAAAAGGGATTGCAGCTTGTA", "values": [
      {"measurement": "functional effect of the aptamer", "setting": "[1]; polymerase keeps inherent high activity, 200 nM aptamer, 100 nM non-complementary DNA, variant of Urea-specific aptamer 1 without target", "result": "not active"}
    ]},
    {"sequence": "TAGGACGGTCACCAGTATTTTTAATCAATGTACAGTATTG / ATTAAAAATACTGGTGACCGTCCTA [Urea-specific aptamer 1 / complementary urea-target 1]", "values": [
      {"measurement": "functional effect of the aptamer", "setting": "[1]; target dose-dependent inhibition, target detection limit 0.91 nM, 5.5 nM Taq, 200 nM aptamer, 25 C, folded or branched DNA, variant of Urea-specific aptamer 1 without target", "result": "active"}
    ]},
    {"sequence": "TAGGACGGTCACCAGTATTTTTAATCAATGTACAGTATTG [Urea-specific aptamer 1 without target]", "values": [
      {"measurement": "functional effect of the aptamer", "setting": "[1]; no inhibition without target, 200 nM aptamer, 25 C, single-stranded DNA, variant of Original DNA aptamer (78-mer)", "result": "not active"}
    ]},
    {"sequence": "TTCTCGGTTGGTCTCTGGCGGAGCAAGACCAGACAATGTACAGTATTGGCCTGATCTTGTGTATGATTCGCTTTTCCC [Original DNA aptamer (78-mer)]", "values": [
      {"measurement": "functional effect of the aptamer", "setting": "[1]; inhibits Taq primer extension, TaqMan readout, 5.5 nM Taq, 100 nM aptamer, 10 mM Tris pH 8.3, 50 mM KCl, 4 mM MgCl2, 25 C, single-stranded DNA", "result": "active"}
    ]},
    {"sequence": "TTTTAATTTTAATTTTCAATGTACAGTATTG / AAAATTAAAATTAAAA [UDG aptamer / control UDG blocker (T for U)]", "values": [
      {"measurement": "activity on this sequence", "setting": "[2]; thymine in place of uracil, 0.5 U/mL UDG, 37 C, variant of UDG aptamer / UDG blocker", "result": "not active"},
      {"measurement": "functional effect of the aptamer", "setting": "[1]; inhibited regardless of presence of UDG, folded or branched DNA, variant of UDG aptamer / UDG blocker, dose not given here", "result": "active"}
    ]},
    {"sequence": "TTTTAATTTTAATTTTCAATGTACAGTATTG / AAAAUUAAAAUUAAAA [UDG aptamer / UDG blocker]", "values": [
      {"measurement": "activity on this sequence", "setting": "[3]", "result": "not active"},
      {"measurement": "activity on this sequence", "setting": "[4]", "result": "not active"},
      {"measurement": "activity on this sequence", "setting": "[5]", "result": "not active"},
      {"measurement": "activity on this sequence", "setting": "[6]", "result": "not active"},
      {"measurement": "activity on this sequence", "setting": "[7]", "result": "not active"},
      {"measurement": "activity on this sequence", "setting": "[8]", "result": "not active"},
      {"measurement": "activity on this sequence", "setting": "[2]; deoxyuracil in blocker at positions 5,6,11,12, uracil excision read out by restored Taq activity, detection limit 0.024 U/mL, 37 C 30 min", "result": "active"},
      {"measurement": "functional effect of the aptamer", "setting": "[1]; deoxyuracil in blocker at positions 5,6,11,12, inhibited in absence of UDG, 200 nM aptamer, 10 nM blocker, 5.5 nM Taq, folded or branched DNA", "result": "active"}
    ]},
    {"sequence": "TTTTAATTTTAATTTTCAATGTACAGTATTG [UDG aptamer freed after UDG cleavage of blocker]", "values": [
      {"measurement": "functional effect of the aptamer", "setting": "[1]; activity restored after UDG cleavage of uracil in blocker, single-stranded DNA, variant of UDG aptamer / UDG blocker, dose not given here", "result": "not active"}
    ]},
    {"sequence": "TTTTTTTTTTTTTTTTTTTTCAATGTACAGTATTG / AAAAAAAAAAAAAAAAAAAA [T20-aptamer / A20-target complex]", "values": [
      {"measurement": "functional effect of the aptamer", "setting": "[1]; inhibition similar to original 78-mer aptamer, 100 nM aptamer and target, 25 C, folded or branched DNA, variant of T20-aptamer without target", "result": "active"}
    ]},
    {"sequence": "TTTTTTTTTTTTTTTTTTTTCAATGTACAGTATTG [T20-aptamer without target]", "values": [
      {"measurement": "functional effect of the aptamer", "setting": "[1]; [9]", "result": "not active"}
    ]}
  ]
}
